Consider six molecules from article PMC3991325.

Chains of the proteins cited; added tags and fusions are not shown.
UniProt Q05022: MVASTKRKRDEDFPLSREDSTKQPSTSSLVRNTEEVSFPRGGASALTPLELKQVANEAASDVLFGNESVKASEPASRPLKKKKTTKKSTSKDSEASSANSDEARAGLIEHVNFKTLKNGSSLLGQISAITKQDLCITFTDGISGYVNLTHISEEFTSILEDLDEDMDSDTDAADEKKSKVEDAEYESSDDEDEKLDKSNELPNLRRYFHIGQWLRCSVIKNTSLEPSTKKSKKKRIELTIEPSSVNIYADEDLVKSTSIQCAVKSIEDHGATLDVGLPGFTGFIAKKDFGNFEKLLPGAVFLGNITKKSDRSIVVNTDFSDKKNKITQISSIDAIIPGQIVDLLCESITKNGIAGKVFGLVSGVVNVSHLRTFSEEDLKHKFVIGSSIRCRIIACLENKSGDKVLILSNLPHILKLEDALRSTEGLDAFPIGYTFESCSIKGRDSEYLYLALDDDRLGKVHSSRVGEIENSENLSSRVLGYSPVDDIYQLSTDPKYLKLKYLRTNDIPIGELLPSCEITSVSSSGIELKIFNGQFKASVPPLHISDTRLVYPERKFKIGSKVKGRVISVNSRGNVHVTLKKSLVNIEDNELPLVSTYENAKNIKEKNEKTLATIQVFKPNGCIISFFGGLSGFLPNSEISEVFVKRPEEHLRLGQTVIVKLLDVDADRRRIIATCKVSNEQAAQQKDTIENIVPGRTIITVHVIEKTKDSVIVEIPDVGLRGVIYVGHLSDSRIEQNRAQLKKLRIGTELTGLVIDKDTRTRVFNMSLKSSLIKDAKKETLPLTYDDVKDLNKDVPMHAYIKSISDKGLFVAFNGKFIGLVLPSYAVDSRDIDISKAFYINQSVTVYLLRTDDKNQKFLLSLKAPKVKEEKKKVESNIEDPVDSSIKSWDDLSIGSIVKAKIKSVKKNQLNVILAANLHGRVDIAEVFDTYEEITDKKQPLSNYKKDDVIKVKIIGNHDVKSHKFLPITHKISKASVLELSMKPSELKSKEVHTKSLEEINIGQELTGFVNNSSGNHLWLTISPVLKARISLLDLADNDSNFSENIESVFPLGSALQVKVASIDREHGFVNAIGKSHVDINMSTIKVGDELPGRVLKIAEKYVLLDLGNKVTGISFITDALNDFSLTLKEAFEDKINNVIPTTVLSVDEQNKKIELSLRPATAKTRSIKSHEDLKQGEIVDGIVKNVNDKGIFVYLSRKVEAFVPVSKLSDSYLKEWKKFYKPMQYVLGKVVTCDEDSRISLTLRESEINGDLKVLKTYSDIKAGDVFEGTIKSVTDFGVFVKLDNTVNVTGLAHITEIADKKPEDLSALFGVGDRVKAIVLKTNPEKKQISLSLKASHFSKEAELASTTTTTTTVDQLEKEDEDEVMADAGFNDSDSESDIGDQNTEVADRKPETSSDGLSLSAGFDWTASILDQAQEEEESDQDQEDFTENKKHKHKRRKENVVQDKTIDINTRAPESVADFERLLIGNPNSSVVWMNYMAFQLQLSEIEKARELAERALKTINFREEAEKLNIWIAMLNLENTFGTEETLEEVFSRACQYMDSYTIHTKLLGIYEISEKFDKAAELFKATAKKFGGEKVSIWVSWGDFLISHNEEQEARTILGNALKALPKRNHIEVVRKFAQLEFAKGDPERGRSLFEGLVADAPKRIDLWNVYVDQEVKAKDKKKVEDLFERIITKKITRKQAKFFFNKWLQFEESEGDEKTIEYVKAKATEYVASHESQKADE

Results are given in words; binding and its absence hold for the method and conditions named. Binding seen in cells or lysates may run through a third protein. These calls come from enrichment with a bait or labelling near it, and not all partners need be listed. A no says only that the protein was not detected with the bait.

B1: Utp21 (protein, UniProt Q06078 1-939)
chain: MSIDLKKRKVEEDVRSRGKNSKIFSPFRIIGNVSNGVPFATGTLGSTFYIVTCVGKTFQIYDANTLHLLFVSEKETPSSIVALSAHFHYVYAAYENKVGIYKRGIEEHLLELETDANVEHLCIFGDYLCASTDDNSIFIYKKSDPQDKYPSEFYTKLTVTEIQGGEIVSLQHLATYLNKLTVVTKSNVLLFNVRTGKLVFTSNEFPDQITTAEPAPVLDIIALGTVTGEVIMFNMRKGKRIRTIKIPQSRISSLSFRTDGSSHLSVGTSSGDLIFYDLDRRSRIHVLKNIHRESYGGVTQATFLNGQPIIVTSGGDNSLKEYVFDPSLSQGSGDVVVQPPRYLRSRGGHSQPPSYIAFADSQSHFMLSASKDRSLWSFSLRKDAQSQEMSQRLHKKQDGGRVGGSTIKSKFPEIVALAIENARIGEWENIITAHKDEKFARTWDMRNKRVGRWTFDTTDDGFVKSVAMSQCGNFGFIGSSNGSITIYNMQSGILRKKYKLHKRAVTGISLDGMNRKMVSCGLDGIVGFYDFNKSTLLGKLKLDAPITAMVYHRSSDLFALALDDLSIVVIDAVTQRVVRQLWGHSNRITAFDFSPEGRWIVSASLDSTIRTWDLPTGGCIDGIIVDNVATNVKFSPNGDLLATTHVTGNGICIWTNRAQFKTVSTRTIDESEFARMALPSTSVRGNDSMLSGALESNGGEDLNDIDFNTYTSLEQIDKELLTLSIGPRSKMNTLLHLDVIRKRSKPKEAPKKSEKLPFFLQLSGEKVGDEASVREGIAHETPEEIHRRDQEAQKKLDAEEQMNKFKVTGRLGFESHFTKQLREGSQSKDYSSLLATLINFSPAAVDLEIRSLNSFEPFDEIVWFIDALTQGLKSNKNFELYETFMSLLFKAHGDVIHANNKNQDIASALQNWEDVHKKEDRLDDLVKFCMGVAAFVTTA
B2: Nop14 (protein, UniProt Q99207 1-810)
chain: MAGSQLKNLKAALKARGLTGQTNVKSKNKKNSKRQAKEYDREEKKKAIAEIREEFNPFEIKAARNKRRDGLPSKTADRIAVGKPGISKQIGEEQRKRAFEARKMMKNKRGGVIDKRFGERDKLLTEEEKMLERFTRERQSQSKRNANLFNLEDDEDDGDMFGDGLTHLGQSLSLEDELANDEEDFLASKRFNEDDAELQQPQRKKTKAEVMKEVIAKSKFYKQERQKAQGIMEDQIDNLDDNFEDVMSELMMTQPKKNPMEPKTDLDKEYDIKVKELQLDKRAAPSDRTKTEEEKNAEAEEKKRELEQQRLDRMNGMIELEEGEERGVEDLDDGFWENEEDYEDDNDGIADSDDDIKFEDQGRDEGFSQILKKKNISISCPRTHDALLDQVKKLDLDDHPKIVKNIIKAYQPKLAEGNKEKLGKFTAVLLRHIIFLSNQNYLKNVQSFKRTQNALISILKSLSEKYNRELSEECRDYINEMQARYKKNHFDALSNGDLVFFSIIGILFSTSDQYHLVITPALILMSQFLEQIKFNSLKRIAFGAVLVRIVSQYQRISKRYIPEVVYFFQKILLTFIVEKENQEKPLDFENIRLDSYELGLPLDVDFTKKRSTIIPLHTLSTMDTEAHPVDQCVSVLLNVMESLDATISTVWKSLPAFNEIILPIQQLLSAYTSKYSDFEKPRNILNKVEKLTKFTEHIPLALQNHKPVSIPTHAPKYEENFNPDKKSYDPDRTRSEINKMKAQLKKERKFTMKEIRKDAKFEARQRIEEKNKESSDYHAKMAHIVNTINTEEGAEKNKYERERKLRGGKK
B3: Rpa135 (protein, UniProt P22138 1-1203)
chain: MSKVIKPPGQARTADFRTLERESRFINPPKDKSAFPLLQEAVQPHIGSFNALTEGPDGGLLNLGVKDIGEKVIFDGKPLNSEDEISNSGYLGNKLSVSVEQVSIAKPMSNDGVSSAVERKVYPSESRQRLTSYRGKLLLKLKWSVNNGEENLFEVRDCGGLPVMLQSNRCHLNKMSPYELVQHKEESDEIGGYFIVNGIEKLIRMLIVQRRNHPMAIIRPSFANRGASYSHYGIQIRSVRPDQTSQTNVLHYLNDGQVTFRFSWRKNEYLVPVVMILKALCHTSDREIFDGIIGNDVKDSFLTDRLELLLRGFKKRYPHLQNRTQVLQYLGDKFRVVFQASPDQSDLEVGQEVLDRIVLVHLGKDGSQDKFRMLLFMIRKLYSLVAGECSPDNPDATQHQEVLLGGFLYGMILKEKIDEYLQNIIAQVRMDINRGMAINFKDKRYMSRVLMRVNENIGSKMQYFLSTGNLVSQSGLDLQQVSGYTVVAEKINFYRFISHFRMVHRGSFFAQLKTTTVRKLLPESWGFLCPVHTPDGSPCGLLNHFAHKCRISTQQSDVSRIPSILYSLGVAPASHTFAAGPSLCCVQIDGKIIGWVSHEQGKIIADTLRYWKVEGKTPGLPIDLEIGYVPPSTRGQYPGLYLFGGHSRMLRPVRYLPLDKEDIVGPFEQVYMNIAVTPQEIQNNVHTHVEFTPTNILSILANLTPFSDFNQSPRNMYQCQMGKQTMGTPGVALCHRSDNKLYRLQTGQTPIVKANLYDDYGMDNFPNGFNAVVAVISYTGYDMDDAMIINKSADERGFGYGTMYKTEKVDLALNRNRGDPITQHFGFGNDEWPKEWLEKLDEDGLPYIGTYVEEGDPICAYFDDTLNKTKIKTYHSSEPAYIEEVNLIGDESNKFQELQTVSIKYRIRRTPQIGDKFSSRHGQKGVCSRKWPTIDMPFSETGIQPDIIINPHAFPSRMTIGMFVESLAGKAGALHGIAQDSTPWIFNEDDTPADYFGEQLAKAGYNYHGNEPMYSGATGEELRADIYVGVVYYQRLRHMVNDKFQVRSTGPVNSLTMQPVKGRKRHGGIRVGEMERDALIGHGTSFLLQDRLLNSSDYTQASVCRECGSILTTQQSVPRIGSISTVCCRRCSMRFEDAKKLLTKSEDGEKIFIDDSQIWEDGQGNKFVGGNETTTVAIPFVLKYLDSELSAMGIRLRYNVEPK
B4: Rcl1 (protein, UniProt Q08096 1-367)
chain: MSSSAPKYTTFQGSQNFRLRIVLATLSGKPIKIEKIRSGDLNPGLKDYEVSFLRLIESVTNGSVIEISYTGTTVIYRPGIIVGGASTHICPSSKPVGYFVEPMLYLAPFSKKKFSILFKGITASHNDAGIEAIKWGLMPVMEKFGVRECALHTLKRGSPPLGGGEVHLVVDSLIAQPITMHEIDRPIISSITGVAYSTRVSPSLVNRMIDGAKKVLKNLQCEVNITADVWRGENSGKSPGWGITLVAQSKQKGWSYFAEDIGDAGSIPEELGEKVACQLLEEISKSAAVGRNQLPLAIVYMVIGKEDIGRLRINKEQIDERFIILLRDIKKIFNTEVFLKPVDEADNEDMIATIKGIGFTNTSKKIA
B5: Rpl8 (protein, UniProt P17076 1-256)
chain: MAPGKKVAPAPFGAKSTKSNKTRNPLTHSTPKNFGIGQAVQPKRNLSRYVKWPEYVRVQRQKKILSIRLKVPPTIAQFQYTLDRNTAAETFKLFNKYRPETAAEKKERLTKEAAAVAEGKSKQDASPKPYAVKYGLNHVVALIENKKAKLVLIANDVDPIELVVFLPALCKKMGVPYAIVKGKARLGTLVNQKTSAVAALTEVRAEDEAALAKLVSTIDANFADKYDEVKKHWGGGILGNKAQAKMDKRAKNSDSA
B6: Rpl33 (protein, UniProt P05744 1-107)
chain: MAESHRLYVKGKHLSYQRSKRVNNPNVSLIKIEGVATPQDAQFYLGKRIAYVYRASKEVRGSKIRVMWGKVTRTHGNSGVVRATFRNNLPAKTFGASVRIFLYPSNI

The experiment deals with Rrp5-HTP (budding yeast) (UniProt Q05022). The experiment is described as follows: affinity purification with mass spectrometry; Rrp5-HTP bound to an IgG column, RNase treatment, brief formaldehyde crosslinking on the column, washing under denaturing conditions (8 M urea), release by brief decrosslinking and SDS; the material migrating above Rrp5 in SDS-PAGE analysed by mass spectrometry; Brr2 as control bait.
With B1, the binding entry is “binds”.

In the case of B2, the binding result is “binds”.

For the molecule B3, the binding result was “binds”.

As to B4, the binding entry is “no binding”.

For the molecule B5, the binding entry is “binds”.

Take B6: the binding result is on record as “binds”.
